# Test results taken from the supplement of paper PMC8728848.
# The list shows a part of the results.
# B1: PX9961M-bvu-482-23-482 (Bacteroides vulgatus) (protein)
# chain: WLDLAPSTQVDTETSINVLSDIEFTLNGIYSTMQSSDAYSGRLVYYGDVTGDDMQAVSSTKRTGNYYRFNFTKDNGPSSHWSYLYSIIQNCNLILMNVDKLSIDEDETEYKNDLKGQALAIRGMALFDLTRIFGYPYLKDNGASLGVPIVKELSTIDSKPARNTVAECYTEIISDLKNSTELLSGDFNKGKVNRWAAMTLLSRVYLYKGEYNEALTMAENAIKGAEKEGYALWTNEEYPTAWGNDASASNPGEILFEIVNLTTDSPGKESMGYLNSYNGYDDMCITCSFYQLLKKDPKDVRLKILSFDKKYYAYVNKYQPQQGENITDANIPLIRLSEAYLNAAEAAVQTGDNAKAVKYLNSIVQRANPENSVEGKTLTLENVLDERRKELVAEGHRMYDVIRNGMTVKRIDVKDSDINKTKHNTAYMEYDWNFHKILLPIPKKEMDANPNMKQNPGYVD
# Columns and labels:
# Test in all cases: glycan array binding signal (z-score within array); higher = stronger binding
# Details in all cases: glycan notation: IUPAC condensed, linker removed
# [1] = molecular target: Gal(a1-3)[Gal(a1-4)]Gal(b1-4)GlcNAc
# How it was run: (§1)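 From the Consortium for Functional Glycomics database, 3228 arrays were curated, keeping only those whose protein sequence was available. Binding is given as a within-array Z-score averaged across arrays sharing a protein sequence and across linkers. Negative Z-scores can be read as non-binding.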
# [2] = molecular target: Gal(a1-4)Gal(b1-3)GlcNAc(b1-2)Man(a1-3)[Gal(a1-4)Gal(b1-3)GlcNAc(b1-2)Man(a1-6)]Man(b1-4)GlcNAc(b1-4)GlcNAc
# How it was run: as §1
# Gal(a1-4)Gal(b1-4)Glc = molecular target: Gal(a1-4)Gal(b1-4)Glc
# How it was run: as §1
# Gal(a1-4)Gal(b1-4)GlcNAc = molecular target: Gal(a1-4)Gal(b1-4)GlcNAc
# How it was run: as §1
# [3] = molecular target: Gal(a1-4)Gal(b1-4)GlcNAc(b1-2)Man(a1-3)[Gal(a1-4)Gal(b1-4)GlcNAc(b1-2)Man(a1-6)]Man(b1-4)GlcNAc(b1-4)GlcNAc
# How it was run: as §1
# [4] = molecular target: Gal(a1-4)Gal(b1-4)GlcNAc(b1-3)Gal(b1-4)Glc
# How it was run: as §1
# Gal(a1-4)GlcNAc = molecular target: Gal(a1-4)GlcNAc
# How it was run: as §1
# Gal(a1-6)Glc = molecular target: Gal(a1-6)Glc
# How it was run: as §1
# Gal(b1-2)Gal = molecular target: Gal(b1-2)Gal
# How it was run: as §1
# Gal(b1-3)Gal = molecular target: Gal(b1-3)Gal
# How it was run: as §1
# Gal(b1-3)Gal(b1-4)GlcNAc = molecular target: Gal(b1-3)Gal(b1-4)GlcNAc
# How it was run: as §1
# Gal(b1-3)GalNAc = molecular target: Gal(b1-3)GalNAc
# How it was run: as §1
# [5] = molecular target: Gal(b1-3)GalNAc(a1-3)[Fuc(a1-2)]Gal(b1-4)Glc
# How it was run: as §1
# [6] = molecular target: Gal(b1-3)GalNAc(a1-3)[Fuc(a1-2)]Gal(b1-4)GlcNAc
# How it was run: as §1
# Gal(b1-3)GalNAc(b1-3)Gal = molecular target: Gal(b1-3)GalNAc(b1-3)Gal
# How it was run: as §1
# [7] = molecular target: Gal(b1-3)GalNAc(b1-3)Gal(a1-4)Gal(b1-4)Glc
# How it was run: as §1
# [8] = molecular target: Gal(b1-3)GalNAc(b1-4)Gal(b1-4)Glc
# How it was run: as §1
# [9] = molecular target: Gal(b1-3)GalNAc(b1-4)[Neu5Ac(a2-3)]Gal(b1-4)Glc
# How it was run: as §1
# Gal(b1-3)GlcNAc = molecular target: Gal(b1-3)GlcNAc
# How it was run: as §1
# [10] = molecular target: Gal(b1-3)GlcNAc(a1-3)Gal(b1-4)GlcNAc
# How it was run: as §1
# [11] = molecular target: Gal(b1-3)GlcNAc(a1-6)Gal(b1-4)GlcNAc
# How it was run: as §1
# Gal(b1-3)GlcNAc(b1-2)Man = molecular target: Gal(b1-3)GlcNAc(b1-2)Man
# How it was run: as §1
# [12] = molecular target: Gal(b1-3)GlcNAc(b1-2)Man(a1-3)[Gal(b1-3)GlcNAc(b1-2)Man(a1-6)]Man(b1-4)GlcNAc(b1-4)GlcNAc
# How it was run: as §1
# [13] = molecular target: Gal(b1-3)GlcNAc(b1-2)Man(a1-3)[Gal(b1-3)GlcNAc(b1-2)Man(a1-6)]Man(b1-4)GlcNAc(b1-4)[Fuc(a1-6)]GlcNAc
# How it was run: as §1
# [14] = molecular target: Gal(b1-3)GlcNAc(b1-2)Man(a1-3)[GlcNAc(b1-4)][Gal(b1-3)GlcNAc(b1-2)Man(a1-6)]Man(b1-4)GlcNAc(b1-4)GlcNAc
# How it was run: as §1
# [15] = molecular target: Gal(b1-3)GlcNAc(b1-2)[Gal(b1-3)GlcNAc(b1-6)]Man(a1-6)[Gal(b1-3)GlcNAc(b1-2)Man(a1-3)]Man(b1-4)GlcNAc(b1-4)GlcNAc
# How it was run: as §1
# [16] = molecular target: Gal(b1-3)GlcNAc(b1-3)Gal(b1-3)GlcNAc
# How it was run: as §1
# [17] = molecular target: Gal(b1-3)GlcNAc(b1-3)Gal(b1-4)Glc
# How it was run: as §1
# [18] = molecular target: Gal(b1-3)GlcNAc(b1-3)Gal(b1-4)GlcNAc
# How it was run: as §1
# [19] = molecular target: Gal(b1-3)GlcNAc(b1-3)Gal(b1-4)GlcNAc(b1-2)Man(a1-3)[Gal(b1-3)GlcNAc(b1-3)Gal(b1-4)GlcNAc(b1-2)Man(a1-6)]Man(b1-4)GlcNAc(b1-4)GlcNAc
# How it was run: as §1
# [20] = molecular target: Gal(b1-3)GlcNAc(b1-3)Gal(b1-4)GlcNAc(b1-2)[Gal(b1-3)GlcNAc(b1-3)Gal(b1-4)GlcNAc(b1-6)]Man(a1-6)[Gal(b1-3)GlcNAc(b1-3)Gal(b1-4)GlcNAc(b1-2)Man(a1-3)]Man(b1-4)GlcNAc(b1-4)[Fuc(a1-6)]GlcNAc
# How it was run: as §1
# [21] = molecular target: Gal(b1-3)GlcNAc(b1-3)Gal(b1-4)GlcNAc(b1-3)Gal(b1-4)GlcNAc(b1-2)[Gal(b1-3)GlcNAc(b1-3)Gal(b1-4)GlcNAc(b1-3)Gal(b1-4)GlcNAc(b1-6)]Man(a1-6)[Gal(b1-3)GlcNAc(b1-3)Gal(b1-4)GlcNAc(b1-3)Gal(b1-4)GlcNAc(b1-2)Man(a1-3)]Man(b1-4)GlcNAc(b1-4)[Fuc(a1-6)]GlcNAc
# How it was run: as §1
# [22] = molecular target: Gal(b1-3)GlcNAc(b1-3)Gal(b1-4)GlcNAc(b1-6)[Gal(b1-3)GlcNAc(b1-3)]Gal(b1-4)Glc
# How it was run: as §1
# [23] = molecular target: Gal(b1-3)GlcNAc(b1-3)Gal(b1-4)[Fuc(a1-3)]GlcNAc
# How it was run: as §1
# [24] = molecular target: Gal(b1-3)GlcNAc(b1-3)Gal(b1-4)[Fuc(a1-3)]GlcNAc(b1-6)[Gal(b1-3)GlcNAc(b1-3)]Gal(b1-4)Glc
# How it was run: as §1
# [25] = molecular target: Gal(b1-3)GlcNAc(b1-3)GalNAc
# How it was run: as §1
# [26] = molecular target: Gal(b1-3)GlcNAc(b1-6)Gal(b1-4)GlcNAc
# How it was run: as §1
# [27] = molecular target: Gal(b1-3)GlcNAc(b1-6)GalNAc
# How it was run: as §1
binder,measurement,setting,value
B1,glycan array binding signal (z-score),[1],4.04
same,glycan array binding signal (z-score),[2],1.92
same,glycan array binding signal (z-score),Gal(a1-4)Gal(b1-4)Glc,0.06
same,glycan array binding signal (z-score),Gal(a1-4)Gal(b1-4)GlcNAc,0.359
same,glycan array binding signal (z-score),[3],0.779
same,glycan array binding signal (z-score),[4],0.792
same,glycan array binding signal (z-score),Gal(a1-4)GlcNAc,-0.763
same,glycan array binding signal (z-score),Gal(a1-6)Glc,-0.463
same,glycan array binding signal (z-score),Gal(b1-2)Gal,-0.222
same,glycan array binding signal (z-score),Gal(b1-3)Gal,-0.752
same,glycan array binding signal (z-score),Gal(b1-3)Gal(b1-4)GlcNAc,0.465
same,glycan array binding signal (z-score),Gal(b1-3)GalNAc,-0.079
same,glycan array binding signal (z-score),[5],-0.056
same,glycan array binding signal (z-score),[6],-0.159
same,glycan array binding signal (z-score),Gal(b1-3)GalNAc(b1-3)Gal,0.02
same,glycan array binding signal (z-score),[7],0.164
same,glycan array binding signal (z-score),[8],0.105
same,glycan array binding signal (z-score),[9],-0.739
same,glycan array binding signal (z-score),Gal(b1-3)GlcNAc,-0.648
same,glycan array binding signal (z-score),[10],0.146
same,glycan array binding signal (z-score),[11],-1.01
same,glycan array binding signal (z-score),Gal(b1-3)GlcNAc(b1-2)Man,-0.302
same,glycan array binding signal (z-score),[12],1.18
same,glycan array binding signal (z-score),[13],-0.075
same,glycan array binding signal (z-score),[14],-0.064
same,glycan array binding signal (z-score),[15],-0.579
same,glycan array binding signal (z-score),[16],-1.04
same,glycan array binding signal (z-score),[17],-0.532
same,glycan array binding signal (z-score),[18],-0.294
same,glycan array binding signal (z-score),[19],0.191
same,glycan array binding signal (z-score),[20],0.461
same,glycan array binding signal (z-score),[21],1.05
same,glycan array binding signal (z-score),[22],-0.033
same,glycan array binding signal (z-score),[23],-0.31
same,glycan array binding signal (z-score),[24],-0.118
same,glycan array binding signal (z-score),[25],-1.23
same,glycan array binding signal (z-score),[26],-0.801
same,glycan array binding signal (z-score),[27],-0.222

# In a second layout: entries from further up.
binder	measurement	setting	value
B1	glycan array binding signal (z-score)	[13]	-0.075
same	glycan array binding signal (z-score)	[14]	-0.064
